Data reported in the supplement of paper PMC9233669.
This sample is rich in variants without activity.

How the values were obtained:
biotinyl-Val-oxazolone = assay: self-aminoacylation, catalytic enhancement (BVO) (fold over background); higher = more active; k-Seq, kA / k0A0; sequences stand for … in GGGAAUGGAUCCACAUCUACGAAUUC…UUCACUGCAGACUUGACGAAGCUG
Procedure, shortened: (§1)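 Mutagenized RNA pools (0.43 μM; 21-nt variable region) were treated with 2–1250 μM of each biotinyl-aminoacyl-oxazolone. Conditions were 50 μL HEPES/NaCl/KCl/MgCl2/CaCl2 buffer, 5% acetonitrile, pH 6.9–7.0, room temperature, 90 minutes. Catalytic enhancement, the median kA relative to the uncatalyzed rate, was derived from streptavidin capture, qPCR and Illumina sequencing.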

biotinyl-Leu-oxazolone = assay: self-aminoacylation, catalytic enhancement (BLO) (fold over background); higher = more active; k-Seq, kA / k0A0; sequences stand for … in GGGAAUGGAUCCACAUCUACGAAUUC…UUCACUGCAGACUUGACGAAGCUG
Procedure, shortened: as §1

biotinyl-Met-oxazolone = assay: self-aminoacylation, catalytic enhancement (BMO) (fold over background); higher = more active; k-Seq, kA / k0A0; sequences stand for … in GGGAAUGGAUCCACAUCUACGAAUUC…UUCACUGCAGACUUGACGAAGCUG
Procedure, shortened: as §1

biotinyl-Ile-oxazolone = assay: self-aminoacylation, catalytic enhancement (BIO) (fold over background); higher = more active; k-Seq, kA / k0A0; sequences stand for … in GGGAAUGGAUCCACAUCUACGAAUUC…UUCACUGCAGACUUGACGAAGCUG
Procedure, shortened: as §1

Sequence | self-aminoacylation (biotinyl-Val-oxazolone) | self-aminoacylation (biotinyl-Leu-oxazolone) | self-aminoacylation (biotinyl-Met-oxazolone) | self-aminoacylation (biotinyl-Ile-oxazolone)
CAACUUCAAACAAUCUGUCUG [Fam1A.1 aminoacylation ribozyme variant] | 0.948 | 0.976 | 0.817 | 1.1
CGACACUUCAAGCAAACGGUC [Fam1B.1 aminoacylation ribozyme variant] | 0.76 | 0.537 | 0.687 | 0.814
CUGCUUCAAACAAUCGGUCCG [Fam1A.1 aminoacylation ribozyme variant] | 1.38 | 2.38 | 1.34 | 1.35
AUGUCUGCUAAUAGUCGCAAG [Fam3.1 aminoacylation ribozyme variant] | 1.56 | 1.74 | 2.25 | 1.91
UUUAGCCUGGUCAUCGAGUGA [Fam2.1 aminoacylation ribozyme variant] | 4.28 | 5.82 | 5.59 | 4.42
CCACAUUUCAAGCAAUCGGUU [Fam1B.1 aminoacylation ribozyme variant] | 1.71 | 1.56 | 1.62 | 1.59
ACAUACUUCAAGCAAUCGGUC [Fam1B.1 aminoacylation ribozyme variant] | 1.22 | 1.34 | 1.17 | 1.25
AUUCACCUAGGUUAUCGGGUU [Fam2.2 aminoacylation ribozyme variant] | 1.61 | 1.56 | 1.31 | 1.36
AUUACACUGGUCACCGAGUGA [Fam2.1 aminoacylation ribozyme variant] | 2.91 | 5.41 | 5.29 | 2.95
CGAGACUUCAAGCAAUCGGUC [Fam1B.1 aminoacylation ribozyme variant] | 1.45 | 1.12 | 1.39 | 1.29
GUGUUUGCUAAUAGUCGCAAG [Fam3.1 aminoacylation ribozyme variant] | 1.72 | 1.71 | 1.8 | 1.99
AUUCAUCUAGGUAAUCGGGUG [Fam2.2 aminoacylation ribozyme variant] | 1.73 | 4.09 | 3.07 | 1.95
AUACACCUACGUCAUCGGGUG [Fam2.2 aminoacylation ribozyme variant] | 2.49 | 5.2 | 4.6 | 3.12
UUACUUCAGACAAUCGGUCUG [Fam1A.1 aminoacylation ribozyme variant] | 1.12 | 1.3 | 1.11 | 1.14
CUGCUUCAAAUAAUCGGUCUG [Fam1A.1 aminoacylation ribozyme variant] | 0.939 | 1.53 | 1.14 | 1.11
UAGUUUCCUAAUAGUCGCAAG [Fam3.1 aminoacylation ribozyme variant] | 1.52 | 1.55 | 1.95 | 1.9
CCACUCUUCAAGCAAUCGGUC [Fam1B.1 aminoacylation ribozyme variant] | 1.12 | 1.2 | 0.921 | 0.978
CUGCGUCAAACAAUCGGUCUG [Fam1A.1 aminoacylation ribozyme variant] | 1.5 | 1.36 | 1.36 | 1.13
CCACACUUCAACAAAUCGGUC [Fam1B.1 aminoacylation ribozyme variant] | 1.06 | 1.25 | 0.808 | 1.08
AAGUUUCCUAAGAGUCGCAAG [Fam3.1 aminoacylation ribozyme variant] | 1.31 | 1.24 | 1.04 | 1.29
CUACACUUCAACCAAUCGGUC [Fam1B.1 aminoacylation ribozyme variant] | 1.19 | 1.94 | 1.36 | 1.28
CUACUUCAAACAAUCGGUCUA [Fam1A.1 aminoacylation ribozyme variant] | 0.936 | 0.956 | 0.774 | 0.896
CUACUUCAGACAAUCGGCCUG [Fam1A.1 aminoacylation ribozyme variant] | 1.56 | 1.58 | 1.5 | 1.54
CUCCCUCAAACAAUCGGUCUG [Fam1A.1 aminoacylation ribozyme variant] | 1.43 | 1.41 | 1.09 | 1.29
CCACAAUUCAAUCAAUCGGUC [Fam1B.1 aminoacylation ribozyme variant] | 0.998 | 0.977 | 0.891 | 1.07

Sequence | self-aminoacylation (biotinyl-Val-oxazolone) | self-aminoacylation (biotinyl-Leu-oxazolone) | self-aminoacylation (biotinyl-Met-oxazolone) | self-aminoacylation (biotinyl-Ile-oxazolone)
UCACACUUCAAGGAAUCGGUC [Fam1B.1 aminoacylation ribozyme variant] | 0.914 | 0.918 | 0.903 | 0.913
CCACACUUCAAACGAUCGGUC [Fam1B.1 aminoacylation ribozyme variant] | 1.16 | 1.14 | 1.07 | 0.92
CCACACUUCAAGGAAUCGGUC [Fam1B.1 aminoacylation ribozyme variant] | 0.971 | 1.11 | 0.903 | 0.936
AUUCACAUAGGGCAUCGGGUG [Fam2.2 aminoacylation ribozyme variant] | 3.39 | 3.62 | 4.4 | 3.83
CCACAAUUCAACCAAUCGGUC [Fam1B.1 aminoacylation ribozyme variant] | 1.35 | 1.42 | 1.5 | 1.35
AGGUGUGCUAAUAGUCGCAAG [Fam3.1 aminoacylation ribozyme variant] | 1.2 | 1.43 | 1.64 | 1.54
CUAAUUCAAACAAUCGGCCUG [Fam1A.1 aminoacylation ribozyme variant] | 1.04 | 1.18 | 1.07 | 1.15
CUUACCCUGGUCAACGAGUGA [Fam2.1 aminoacylation ribozyme variant] | 3.29 | 5.08 | 5.06 | 2.56
AAGUUUGGUCAUAGUCGCAAG [Fam3.1 aminoacylation ribozyme variant] | 1.78 | 1.8 | 1.53 | 1.87
AUUACCCUGGGCAUCGGGUGA [Fam2.1 aminoacylation ribozyme variant] | 6.68 | 11.5 | 10.4 | 5.62
CUACUUCAUACAAUCGUUCUG [Fam1A.1 aminoacylation ribozyme variant] | 0.655 | 0.477 | 0.476 | 0.535
CCACACUUCAAACAAUCGGCC [Fam1B.1 aminoacylation ribozyme variant] | 2.19 | 1.61 | 1.96 | 1.77
CUACUUCAAACAAUCAGUCGG [Fam1A.1 aminoacylation ribozyme variant] | 1 | 1.55 | 1.29 | 1.32
AUUACCCUGGUCAUCUUGUGA [Fam2.1 aminoacylation ribozyme variant] | 2.33 | 4.41 | 4.75 | 2.27
CUACACUUAAAGCAAUCGGUC [Fam1B.1 aminoacylation ribozyme variant] | 0.738 | 0.696 | 0.713 | 0.786
AUGCACCUCGGUCAUCGGGUG [Fam2.2 aminoacylation ribozyme variant] | 3.86 | 6.47 | 5.38 | 4.1
GUUACCCUGGUCAUCGGGUGA [Fam2.1 aminoacylation ribozyme variant] | 36.7 | 92.1 | 89.7 | 30.9
CUACUUCAAACAAACGGUCGG [Fam1A.1 aminoacylation ribozyme variant] | 0.944 | 0.809 | 0.726 | 1.05
AUUCACCUAGGACAUCGAGUG [Fam2.2 aminoacylation ribozyme variant] | 1.12 | 1.81 | 1.52 | 1.02
AAGUUUUCUAAUAGUCGGAAG [Fam3.1 aminoacylation ribozyme variant] | 1.31 | 1.14 | 1.25 | 1.44
CCCCACUUCUAGCAAUCGGUC [Fam1B.1 aminoacylation ribozyme variant] | 1.53 | 1.01 | 1.06 | 1.26
CUACUUCAAACAAUCGGUUUA [Fam1A.1 aminoacylation ribozyme variant] | 0.832 | 0.759 | 0.889 | 0.94
GUUCACCUAGGUGAUCGGGUG [Fam2.2 aminoacylation ribozyme variant] | 3.88 | 4.25 | 3.88 | 3.88
AUACUUCAACCAAUCGGUCUG [Fam1A.1 aminoacylation ribozyme variant] | 0.821 | 0.994 | 1.04 | 0.826
AAGUAUGCUAAUAGUCACAAG [Fam3.1 aminoacylation ribozyme variant] | 1.59 | 1.41 | 1.3 | 1.62
